Like-named read-outs stand apart in the source and are kept apart here. Results are given in words; binding and its absence hold for the method and conditions named. In cells and extracts the contact can be indirect. Some binding calls cover weakened binding; strength is not graded here. One block for each molecule: values may come before it.
How the values were obtained:
[1] = molecular target: MYCN (human (endogenous in IMR32 and NBLS)) (UniProt P04198); assay: co-IP
[2] = molecular target: MYCN (human (endogenous in IMR32 and NBLS)) (UniProt P04198); assay: co-IP; remark: listed apart in the source

By UniProt entry, the sequences of proteins in these tests, tags left out.
UniProt P04198: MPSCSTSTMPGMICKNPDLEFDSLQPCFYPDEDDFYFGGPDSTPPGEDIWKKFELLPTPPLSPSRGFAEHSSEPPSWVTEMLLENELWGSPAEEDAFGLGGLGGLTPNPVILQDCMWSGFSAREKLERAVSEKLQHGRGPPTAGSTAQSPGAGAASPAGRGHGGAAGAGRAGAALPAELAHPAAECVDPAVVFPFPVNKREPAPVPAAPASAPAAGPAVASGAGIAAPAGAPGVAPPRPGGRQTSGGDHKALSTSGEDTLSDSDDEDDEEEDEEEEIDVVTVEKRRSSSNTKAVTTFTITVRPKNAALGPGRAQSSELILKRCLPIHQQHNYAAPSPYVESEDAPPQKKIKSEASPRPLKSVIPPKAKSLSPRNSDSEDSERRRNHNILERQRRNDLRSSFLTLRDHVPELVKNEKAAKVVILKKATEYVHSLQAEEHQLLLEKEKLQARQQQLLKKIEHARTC
UniProt P61244: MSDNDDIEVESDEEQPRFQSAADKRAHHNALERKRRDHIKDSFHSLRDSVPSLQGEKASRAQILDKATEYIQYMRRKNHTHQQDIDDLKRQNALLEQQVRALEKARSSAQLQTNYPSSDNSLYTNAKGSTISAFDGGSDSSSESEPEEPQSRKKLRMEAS

binding [1]: binds
binding [2]: binds
Molecule: MAX (from UniProt P61244 1-160)

binding [1]: binds
binding [2]: binds
B1: TBX2 (protein, UniProt Q13207 1-712)
chain: MREPALAASAMAYHPFHAPRPADFPMSAFLAAAQPSFFPALALPPGALAKPLPDPGLAGAAAAAAAAAAAAEAGLHVSALGPHPPAAHLRSLKSLEPEDEVEDDPKVTLEAKELWDQFHKLGTEMVITKSGRRMFPPFKVRVSGLDKKAKYILLMDIVAADDCRYKFHNSRWMVAGKADPEMPKRMYIHPDSPATGEQWMAKPVAFHKLKLTNNISDKHGFTILNSMHKYQPRFHIVRANDILKLPYSTFRTYVFPETDFIAVTAYQNDKITQLKIDNNPFAKGFRDTGNGRREKRKQLTLPSLRLYEEHCKPERDGAESDASSCDPPPAREPPTSPGAAPSPLRLHRARAEEKSCAADSDPEPERLSEERAGAPLGRSPAPDSASPTRLTEPERARERRSPERGKEPAESGGDGPFGLRSLEKERAEARRKDEGRKEAAEGKEQGLAPLVVQTDSASPLGAGHLPGLAFSSHLHGQQFFGPLGAGQPLFLHPGQFTMGPGAFSAMGMGHLLASVAGGGNGGGGGPGTAAGLDAGGLGPAASAASTAAPFPFHLSQHMLASQGIPMPTFGGLFPYPYTYMAAAAAAASALPATSAAAAAAAAAGSLSRSPFLGSARPRLRFSPYQIPVTIPPSTSLLTTGLASEGSKAAGGNSREPSPLPELALRKVGAPSRGALSPSGSAKEAANELQSIQRLVSGLESQRALSPGRESPK
